## Primary screen of a compound library

The filed quantity is “Percent Effect” (%).
The record does not define 0% and 100%; most values in the screen are far below 50% and negative numbers occur (in some assays of this library far below -100).
This is an unselected part of the compounds tested.
A dash means the value is not listed here; it may have been measured.

A: 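Whole-cell assay for inhibitors of Mycobacterium tuberculosis growth, labelled Cornell in the record; the read-out is not stated. The concentration is filed as 10 mM, unlikely as a test dose, so the dose is not known. Higher means stronger inhibition (inferred from two other growth screens of the library). Of about 53,000 compounds tested this way, about 900 (1.7%) reached 50% or more in at least one test.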
B: 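Assay on Mycobacterium tuberculosis, filed only as a heat shock assay from Cornell; the read-out is not stated. The concentration is filed as 10 mM, unlikely as a test dose, so the dose is not known. The record gives no direction; compounds that gave an IC50 in retests scored well above the rest, so higher reads as stronger inhibition. About 69,000 compounds were tested under these conditions; 1.4% (about 930) showed 50% or more at least once.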

structure,A,B
CCOc1ccc(C(=O)Nc2c(C)nc3cccc(C)n3c2=O)cc1,12.37,-7.523
Cc1ccc(OC2CCN(C(=O)C(C)Cn3cccn3)CC2)cc1 (stereo not shown),22.47,-20.86
Cc1cnn(CC2CCCN2Cc2noc(C)n2)c1 (stereo not shown),-2.21,-1.003
[H][C@@]12C[C@@H](C)O[C@]1([H])CN(C(=O)c1cccc3c1OCCO3)C2,-24.01,11.57
O=C(CC1CCc2ccccc21)NC1(C(=O)O)CCOCC1 (stereo not shown),-,-3.716
Cc1nc2ccccn2c1CC(=O)N[C@@H]1CC[C@@H](N2CCCC2)[C@@H]1O,13.48,-14.05
CCC1CN(C(=O)c2ccccc2N2CCOCC2)CCN1C(C)C (stereo not shown),-37.01,-16.19
O=C(O)C(F)(F)F.[H][C@]12CCN(c3ccccn3)[C@@]1([H])CC[C@@H](COCC(=O)N(C)C)O2,-4.873,-1.761
CCc1c(C)nc2cc(C3CCN(Cc4cccnc4)C3)nn2c1O (stereo not shown),14.62,-11.8
CCc1ccc(S(=O)(=O)Nc2cc(OC)c(OC)cc2C(=O)O)s1,16.65,4.699
Cc1nc(CN(CCS(C)(=O)=O)C(C)C)cs1,-6.23,-0.725
O=C(CCOc1cccc(F)c1)N1CCCC(n2cccn2)C1 (stereo not shown),-,-23.14
O=C(NCCn1ccc(-c2ccccn2)n1)c1ccncc1,-19.52,-3.154
Cc1ccccc1C(=O)N1CC(C(=O)NCC2CC2)C2(CCOCC2)C1 (stereo not shown),-27.25,8.987
Cc1ccc(CN2CCCC23CCN(S(=O)(=O)c2ccccc2)C3)o1 (stereo not shown),18.1,8.664
O=C(CCC(=O)Nc1nnc(C2CCCCC2)s1)NCC1CCCO1 (stereo not shown),-1.252,-30.4
Cc1ccnc2c1NC(=O)CN2C(=O)CCc1ccccc1,15.67,3.544
Cc1ccsc1CNC(=O)N(C)Cc1cnn(C)c1,-,10.91
COc1ccc(CN2CCOC3(CCCN(c4nnc(C)o4)C3)C2)cc1.O=C(O)C(F)(F)F (stereo not shown),36.83,-39.04
[H][C@]12C[C@H](C(=O)NC)N(S(C)(=O)=O)[C@@]1([H])CN(C(=O)c1occc1C)C2,12.71,-9.657
Cc1ccc(S(=O)(=O)N2CSCC2C(=O)N(C)C2CC2)cc1Cl (stereo not shown),23.72,8.051
NCC1Cc2cc(-c3nccc(N4CCC(O)CC4)n3)cc(Cl)c2O1 (stereo not shown),7.262,10.03
O=C(O)C(F)(F)F.O=C(O)C(F)(F)F.[H][C@@]12CCCO[C@]1([H])[C@H](Nc1ccccn1)CN(Cc1c(C)noc1C)C2,-,-18.74
Cn1c(C2CC2)nc2c1CCN(CC(=O)Nc1nncs1)C2,8.186,13.67
CN(C)C(=O)c1cnc2n1CCN(Cc1cccnc1)C2.O=C(O)C(F)(F)F.O=C(O)C(F)(F)F,-13,-2.496
CN1CCCC1CCn1ccnc1-c1nc(-c2ccccc2)no1 (stereo not shown),-,-26.48
c1cnc(NCCCOC2CCOCC2)nc1,-,6.735
COC(C)Cc1nc(-c2cnn3c(C)cc(C)nc23)no1 (stereo not shown),-20.98,-13.01
CCn1cc(CN2CCCN(C(=O)c3ccco3)CC2)cn1,-,5.101
CCc1ccc(C(=O)N2CCCC(CNS(C)(=O)=O)C2)o1 (stereo not shown),-,-15
Cc1nc(O)cc(C2CCCN(C(=O)CN(C)c3ccccc3)C2)n1 (stereo not shown),-40.43,-10.87
Cc1cc(CN2CCN(S(C)(=O)=O)CC(C(=O)N(C)C)C2)no1 (stereo not shown),-44.07,-19.05
COC1CCN(C(=O)c2cc(-c3ccc(Cl)cc3)on2)CC1,34.66,18.95
Cn1c(Cn2ccnc2)nnc1C1CCCN(c2ncccn2)C1 (stereo not shown),-,-7.625
COC1COC2(CCN(Cc3ccc(Cl)cc3)CC2)C1.O=C(O)C(F)(F)F (stereo not shown),-23.31,-23.85
COCc1csc(NC(=O)NCc2ccccn2)n1,-47.09,4.973
O=C(O)C(F)(F)F.[H][C@@]12CN(Cc3ccco3)CCO[C@]1([H])CN(C(=O)c1cocn1)C2,-1.949,0.2115
Cc1n[nH]c(C)c1-c1cc(-c2ccc[nH]2)nc(N)c1C#N,-1.134,-7.503
CN(CCc1ccccc1)Cc1nc(Cc2cccc(F)c2)no1,7.006,30.59
CC(C)C1CN(c2ncc(F)cn2)CCC(=O)N1Cc1ccc(F)cc1 (stereo not shown),12.84,6.82
CNc1ncc(C(=O)N2CCCC(CO)(CCCOC)C2)cn1 (stereo not shown),-,-3.816
Cc1cc(C)n(CCC(=O)N2CCC(c3nc(C(C)C)no3)CC2)n1,-39.36,3.401
CCc1n[nH]c(=O)c(C(=O)N2CCOC3(CCCC3)C2)c1CC,16.39,-8.24
CN(CCCc1cnn(C)c1)C(=O)Nc1cccc2[nH]ncc12,-,-17.06
CC(C1CCN(Cc2c(Cl)cncc2Cl)CC1)N1CCOCC1 (stereo not shown),7.928,-44.11
CC(=O)N(C)CC(=O)Nc1cnc(-n2ccnc2)nc1,1.047,8.37
Cn1ccc(C(=O)NCc2ccccc2CN2CCCCC2)cc1=O,-,2.353
Cl.c1cncc(CNCc2cccs2)c1,-11.61,5.045
Cc1ccc(S(=O)(=O)Nc2ccc(-n3ccnc3C)nc2)cc1N(C)C,6.175,-36.84
CN(CCCc1ccccc1)C(=O)c1cn2c(n1)CNCC2,36.24,2.1
Cc1ccnn1CCC(=O)N1CCC(c2cnccn2)CC1,-104.7,12.23
NC(=O)c1cc(C2CCCN(C(=O)CCc3cccs3)C2)n[nH]1 (stereo not shown),-,-10.99
CS(=O)(=O)N1CCN(C(=O)c2cnn3c2OCCC3)CC1,7.694,14.99
O=C(Cn1cnc(NC(=O)c2ccccn2)n1)NCc1ccccc1,13.56,13.04
OC1(CNCc2noc(Cc3ccccc3)n2)CNCCOC1 (stereo not shown),-98.34,11.03
Cc1cccc(NC(=O)c2sccc2C)n1,-30.35,-2.368
Cn1nc(CN2CCCCC(N)C2)c2c(Cl)cccc21 (stereo not shown),-4.365,-3.376
[H][C@]12C[C@H](C(=O)NC)N(C)[C@@]1([H])CN(C(=O)c1cnc(C)cn1)C2,-35.07,7.389
CCN1CCOCC12CCN(C(=O)C1CCCC1)CC2.O=C(O)C(F)(F)F,16.71,-1.07
CC(C(=O)Nc1ccnn1C(C)C)N1CCN(Cc2ccccc2)CC1 (stereo not shown),-,-18.13
O=C(NCCSC1CCCC1)c1cc(C2CC2)on1,21.86,1.885
CC(C)n1cnc2c1C(C(=O)N1CCOCC1)N(CC1CC1)CC2.O=C(O)C(F)(F)F (stereo not shown),-7.244,5.881
Cn1cc(C2(C)CN(C(=O)Nc3ccccc3F)CCO2)cn1 (stereo not shown),-,-20.82
Cn1cc(N2CCCC(Nc3ccc4c(c3)NC(=O)CC4)C2=O)cn1 (stereo not shown),22.49,6.985
Cc1ccc(C(=O)NS(=O)(=O)Cc2ccon2)c(C)c1,-49.15,-0.2277
O=C(c1ccc(Cl)s1)N1CCC2(CNS(=O)(=O)c3cnccc3O2)C1 (stereo not shown),-,-13.03
Cc1cnn(Cc2cc(F)ccc2F)c1NC(=O)CNC(=O)C1CC1,-31.61,-6.907
CN(C)C(=O)c1cccc(CN2CCOC(Cn3cncn3)C2)c1 (stereo not shown),-10.42,-3.246
[H][C@]12C[C@H](CN(C)C)O[C@@]1([H])CN(C(=O)c1ccco1)C2,22.46,2.65
CNc1ncccc1CN1CCN(C)CC(C(N)=O)C1 (stereo not shown),-44.58,-16.23
O=C(c1ccc(-c2ccsc2)nc1)N1CCCN(C2CCCCC2)CC1,12.64,-15.14
[H][C@@]12CS(=O)(=O)C[C@]1([H])N(Cc1ccc3ccccc3c1)CCN2CC1CC1,7.932,-14.59
Cc1cnn(CC2CCCCN2C(=O)Cc2cccc(F)c2)c1 (stereo not shown),9.378,-6.801
Cc1ccc(NC(=O)CCC2CC2)cc1N1CCOC1=O,-,23.3
O=C(NCCN1CCOCC1)NCc1ncc(-c2ccccc2)o1,15.4,-11.1
CC(=O)N1CCC2(CC1)c1ncc(-c3ccccc3)n1CCN2C,-5.412,0.2179
CCN(CC)CCNC(=O)c1cc(C(C)C)nc(N2CCCC2)n1,-,-11.12
CC(C)(C)OC(=O)N1CSC[C@@H]1C(=O)NCc1cccc(C#N)c1,1.761,13.9

The values are deposited in ChEMBL (CHEMBL3988442, “University of Dundee, Small-Polar-MMV Screening Library” (2021)).